# In patent US20030125523A1 (VEGENICS, published 2003):
# Target: soluble myc-tagged NP-1 (extracellular domain of NP-1 with a C-terminal myc tag) (Mus musculus (Mouse))
# Experiment: pull-down of growth factor with NP-1-myc and anti-myc antibody (FIG. 13b)
binder,measurement,value
"mouse VEGF-B167 (ligand, UniProt P49766-2 22-188, looked up, 35S metabolically labelled, from conditioned medium of transfected cells; also called mVEGF-B167) PVSQFDGPSHQKKVVPWIDVYARATCQPREVVVPLSMELMGNVVKQLVPSCVTVQRCGGCCPDDGLECVPTGQHQVRMQILMIQYPSSQLGEMSLEEHSQCECRPKKKESAVKPDSPRILCPPCTQRRQRPDPRTCRCRCRRRRFLHCQGRGLELNPDTCRCRKPRK",binding,binds

# These are yes or no findings as the source states them, for the method shown. Binding seen in cells or lysates may run through a third protein. A result given as binding can be weak or reduced; the word gives no strength.
